Measured values as given in PubChem BioAssay AID504834 (National Center for Advancing Translational Sciences (NCATS), 2011).
The whole screen tested about 320,000 compounds, of which about 22,000 (6.9%) were called active. Inconclusive results, whose numbers are uncertain, are shown with a selection of clear calls. Calls follow the shape of the dose curve; as a rule, active = well fitted inhibition curve with a large enough effect; inconclusive = small, poorly fitted or top-dose-only effect, or another doubt; inactive = no such curve, though single readings can be large or run the other way. Potencies of inconclusive entries are doubtful fits and often do not repeat.

experiment: Primary qHTS for delayed death inhibitors of the malarial parasite plastid, 96 hour incubation; conditions: P. falciparum luciferase reporter growth; series mostly up to 28.7 µM; activity change, negative = inhibition: at the top concentration
Summary of the method: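 Luminescence readout: decreased luciferase signal marks inhibited growth of reporter-expressing P. falciparum in infected red cells (2% hematocrit, 0.05% parasitemia final), exposed to compound two generations (96 h, 37 C, 5% CO2).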
% is scaled to controls: 0 for no effect and ±100 for the full control effect; potency is read from the fitted curve at half-maximal effect.

**Q.** With `Cc1cc(C)c(C#N)c(N2CCSCC2)n1` as the compound, how does the “activity change, negative = inhibition” value read?
**A.** inactive: -21.3%

**Q.** For `CCn1c(SCC(=O)N2CCN(c3ccccc3)CC2)nnc1-c1c[nH]c2ccccc12`, which Potency is on record?
**A.** inconclusive: 14.7 µM [inhibitor, partial curve]

**Q.** For `COc1cc(NC(=O)COC(=O)c2ccc(C)c(S(=O)(=O)N3CCCCC3)c2)c(C)cc1[N+](=O)[O-]`, which Potency is on record?
**A.** inconclusive: 0.415 µM [inhibitor, partial curve]

**Q.** For `OC(Cn1cncn1)(c1ccc(F)cc1)c1ccc(Cl)cc1` (centres undefined), which Potency is on record?
**A.** inconclusive: 11.7 µM [inhibitor, partial curve, poor fit]

**Q.** For `O=C(Nc1nnc(-c2ccccc2)s1)c1cccc(S(=O)(=O)N2CCOCC2)c1`, which Potency is on record?
**A.** inconclusive: 18.5 µM [inhibitor, single point]

**Q.** Which Potency does the source give for `CCN(Cc1nc2ccccc2c(=O)[nH]1)C(=O)COc1ccccc1Cc1ccccc1` here?
**A.** active: 8.28 µM

**Q.** For `Cc1ccc(CNC(=O)CCSCc2ccccc2F)cc1`, which “activity change, negative = inhibition” value is on record?
**A.** inactive: -21%

**Q.** Which Potency does the source give for `CC(C)CN1C(=O)c2ccc(C(=O)NCc3ccc4c(c3)OCO4)cc2C1=O` here?
**A.** inconclusive: 9.28 µM [inhibitor, single point]

**Q.** For `CCc1ccc(NC(=O)C(=O)c2cn(CC(=O)N3CCCCC3)c3ccccc23)cc1`, which Potency is on record?
**A.** inconclusive: 4.15 µM [inhibitor, single point]

**Q.** With `COc1ccc(C(CNC(=O)c2cccc(S(=O)(=O)N3CCCC3)c2)N2CCCC2)cc1` (centres undefined) as the compound, how does the Potency read?
**A.** inconclusive: 13.1 µM [inhibitor, single point]

**Q.** With `CCCCN1C(=O)NC(c2ccc(OC)cc2)C(C(=O)OCc2ccccc2)=C1C` (centres undefined) as the compound, how does the Potency read?
**A.** active: 5.22 µM

**Q.** Which Potency does the source give for `CCCC(c1nnnn1C(C)(C)C)N1CCN(Cc2ccccc2)CC1` (centres undefined) here?
**A.** inconclusive: 20.8 µM [inhibitor, partial curve, poor fit]

**Q.** Which Potency does the source give for `O=C(c1ccc([N+](=O)[O-])cc1[N+](=O)[O-])N1CCc2ccccc21` here?
**A.** inconclusive: 0.0029 µM [inhibitor, full curve, poor fit]

**Q.** With `Cc1cccn2c(=O)c(/C=C(\C#N)C(N)=O)c(N3CCCCCC3)nc12` as the compound, how does the “activity change, negative = inhibition” value read?
**A.** inactive: -27%

**Q.** With `COc1ccc(-c2n[nH]c3c2CN(C(=O)c2ccccc2)CC3)cc1` as the compound, how does the “activity change, negative = inhibition” value read?
**A.** inactive: 2.27%

**Q.** For `COc1ccccc1/C=C/C(=O)OCC(=O)Nc1cc(C(F)(F)F)ccc1N1CCOCC1`, which Potency is on record?
**A.** inconclusive: 13.1 µM [inhibitor, single point]

**Q.** Which “activity change, negative = inhibition” value does the source give for `COc1ccc(C(=O)CCC(C)(C)[N+](=O)[O-])cc1` here?
**A.** inactive: 175%

**Q.** With `CC(SC1=NCCN1S(C)(=O)=O)c1ccccc1` (centres undefined) as the compound, how does the “activity change, negative = inhibition” value read?
**A.** inactive: 1.92%

**Q.** For `CC(C)(C)NC(=O)Cn1c(Cl)nc2ccccc21`, which Potency is on record?
**A.** inconclusive: 2.62 µM [inhibitor, full curve]

**Q.** Which Potency does the source give for `C=CCn1c(SCC(=O)c2ccc(O)c(O)c2)nnc1-c1cccc(OC)c1` here?
**A.** inconclusive: 16.5 µM [inhibitor, single point]

**Q.** Which Potency does the source give for `COc1ccc(N2C(=O)CSC2c2ccccc2[N+](=O)[O-])cc1` (centres undefined) here?
**A.** inconclusive: 0.415 µM [inhibitor, partial curve, poor fit]

**Q.** With `CN1CCc2ccccc2C1Cc1ccccc1NC(=O)c1sc2ccccc2c1Cl` (centres undefined) as the compound, how does the Potency read?
**A.** inconclusive: 9.28 µM [inhibitor, partial curve, poor fit]

**Q.** Which Potency does the source give for `CCC(=NCCc1ccc(OC)c(OC)c1)c1ccccc1O` here?
**A.** inconclusive: 11.7 µM [inhibitor, single point]

**Q.** For `O=C(CCn1c(=O)c2cccn2c2cccnc21)NCc1cccc(Cl)c1`, which Potency is on record?
**A.** inconclusive: 4.15 µM [inhibitor, single point]

**Q.** With `Cc1c(N=Nc2c(-c3ccc([N+](=O)[O-])cc3)[nH]n(C(N)=S)c2=O)cccc1[N+](=O)[O-]` as the compound, how does the Potency read?
**A.** inconclusive: 18.5 µM [inhibitor, partial curve, poor fit]

**Q.** With `Cc1c(Cl)cccc1NC(=O)c1cc(S(=O)(=O)N2CCOCC2)cn1C` as the compound, how does the Potency read?
**A.** inconclusive: 16.5 µM [inhibitor, single point]

**Q.** For `Cc1occc1-c1nnc(SCC(=O)Nc2ccc(F)cc2)n1C`, which “activity change, negative = inhibition” value is on record?
**A.** inactive: 4.03%

**Q.** With `O=C(COc1ccccc1)NCC1(N2CCCCC2)CCCCC1` as the compound, how does the Potency read?
**A.** inconclusive: 0.262 µM [inhibitor, full curve, poor fit]

**Q.** For `CC(CN1CCOCC1)OC(=O)C(C)(c1ccccc1)c1ccccc1` (centres undefined), which Potency is on record?
**A.** inconclusive: 13.1 µM [inhibitor, partial curve, poor fit]

**Q.** With `CCCCc1cc(=O)oc2cc(OCC(=O)N3C[C@H]4C[C@@H](C3)c3cccc(=O)n3C4)c(Cl)cc12` as the compound, how does the Potency read?
**A.** inconclusive: 1.31 µM [inhibitor, full curve, poor fit]

**Q.** For `NC1=NC(=O)/C(=C/c2cccs2)S1`, which Potency is on record?
**A.** inconclusive: 0.586 µM [inhibitor, partial curve, poor fit]

**Q.** Which Potency does the source give for `Cc1cccc2sc(NC(=O)c3cc(S(=O)(=O)N(C)C)ccc3N3CCCC3)nc12` here?
**A.** inconclusive: 13.1 µM [inhibitor, partial curve, poor fit]

**Q.** With `COc1ccc(CC(=O)NNC(=O)c2cccnc2)cc1OC` as the compound, how does the “activity change, negative = inhibition” value read?
**A.** inactive: 33.7%

**Q.** Which Potency does the source give for `COc1ccc(NC(=O)C(=O)NCCC2CCCCN2S(=O)(=O)c2ccccc2)cc1` (centres undefined) here?
**A.** inconclusive: 8.28 µM [inhibitor, partial curve, poor fit]
